Test [1] concerns the target T1, SMC3, yeast two-hybrid fusion (Arabidopsis thaliana) (UniProt Q56YN8).
T1 sequence: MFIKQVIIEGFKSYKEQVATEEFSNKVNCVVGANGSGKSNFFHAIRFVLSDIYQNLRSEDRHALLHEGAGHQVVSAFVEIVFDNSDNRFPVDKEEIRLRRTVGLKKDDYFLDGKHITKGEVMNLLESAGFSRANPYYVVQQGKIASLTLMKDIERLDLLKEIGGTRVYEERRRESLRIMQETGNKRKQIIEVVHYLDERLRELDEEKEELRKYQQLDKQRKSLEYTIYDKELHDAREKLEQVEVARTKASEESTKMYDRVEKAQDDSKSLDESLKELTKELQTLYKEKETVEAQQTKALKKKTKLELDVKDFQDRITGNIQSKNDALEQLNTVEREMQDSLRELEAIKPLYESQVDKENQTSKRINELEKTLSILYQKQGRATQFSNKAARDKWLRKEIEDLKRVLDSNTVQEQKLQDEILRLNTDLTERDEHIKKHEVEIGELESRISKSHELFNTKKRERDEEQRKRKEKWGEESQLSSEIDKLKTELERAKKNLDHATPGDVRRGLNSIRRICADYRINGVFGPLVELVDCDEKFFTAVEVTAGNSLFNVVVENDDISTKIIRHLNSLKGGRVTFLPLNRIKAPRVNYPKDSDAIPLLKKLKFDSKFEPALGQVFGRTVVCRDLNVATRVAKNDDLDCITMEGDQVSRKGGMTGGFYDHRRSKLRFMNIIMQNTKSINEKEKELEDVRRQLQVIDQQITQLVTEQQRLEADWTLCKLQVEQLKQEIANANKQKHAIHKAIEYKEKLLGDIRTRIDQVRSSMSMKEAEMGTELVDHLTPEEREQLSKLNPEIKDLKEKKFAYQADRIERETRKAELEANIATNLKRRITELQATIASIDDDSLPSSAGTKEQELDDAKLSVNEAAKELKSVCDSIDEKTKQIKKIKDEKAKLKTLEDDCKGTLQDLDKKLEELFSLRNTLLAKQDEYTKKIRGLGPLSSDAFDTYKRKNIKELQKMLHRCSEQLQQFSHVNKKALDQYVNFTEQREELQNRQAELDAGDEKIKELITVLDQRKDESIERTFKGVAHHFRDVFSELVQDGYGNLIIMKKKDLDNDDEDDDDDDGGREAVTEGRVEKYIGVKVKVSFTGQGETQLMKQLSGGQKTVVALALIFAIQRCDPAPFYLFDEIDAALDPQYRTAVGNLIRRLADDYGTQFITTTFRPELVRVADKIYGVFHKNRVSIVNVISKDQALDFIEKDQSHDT
As to the kind of experiment: two-hybrid; Matchmaker Gold system (Clontech), pGADT7-GW and pGBKT7-GW fusions co-transformed into yeast AH109; growth on SD/-Leu -Trp -His.

The target of test [2] is T2, PDS5A^1-809, yeast two-hybrid fusion (Arabidopsis thaliana) (UniProt B6EUB3).
T2 sequence: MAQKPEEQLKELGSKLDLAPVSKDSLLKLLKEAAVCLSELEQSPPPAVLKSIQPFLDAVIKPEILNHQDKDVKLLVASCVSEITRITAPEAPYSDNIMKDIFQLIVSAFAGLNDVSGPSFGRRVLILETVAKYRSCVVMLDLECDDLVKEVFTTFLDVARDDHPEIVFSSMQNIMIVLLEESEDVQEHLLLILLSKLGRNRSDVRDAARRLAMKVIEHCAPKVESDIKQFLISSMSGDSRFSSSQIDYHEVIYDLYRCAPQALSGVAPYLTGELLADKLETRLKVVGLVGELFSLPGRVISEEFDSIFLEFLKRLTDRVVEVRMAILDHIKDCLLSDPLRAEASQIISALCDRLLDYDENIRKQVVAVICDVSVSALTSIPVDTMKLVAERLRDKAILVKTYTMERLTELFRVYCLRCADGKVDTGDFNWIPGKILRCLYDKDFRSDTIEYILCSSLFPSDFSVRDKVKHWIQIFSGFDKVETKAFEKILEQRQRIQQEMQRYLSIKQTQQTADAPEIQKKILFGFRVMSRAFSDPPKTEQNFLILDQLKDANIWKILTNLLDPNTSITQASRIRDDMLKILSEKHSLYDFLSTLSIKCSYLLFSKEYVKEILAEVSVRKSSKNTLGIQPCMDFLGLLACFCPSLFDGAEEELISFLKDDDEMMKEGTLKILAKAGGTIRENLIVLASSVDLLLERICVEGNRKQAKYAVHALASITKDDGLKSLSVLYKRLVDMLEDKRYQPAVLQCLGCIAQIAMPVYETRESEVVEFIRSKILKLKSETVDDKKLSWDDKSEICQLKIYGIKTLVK
The description is as above.

These are yes or no findings as the source states them, for the method shown. Some results given as binding are weak or reduced against the parent protein; the word gives no strength. Where a sequence is shown, tags or fusion partners need not be part of it.

B1: SWITCH 1/DYAD (SWI1), yeast two-hybrid fusion (protein, UniProt Q9FGN8 1-639)
chain: MSSTMFVKRNPIRETTAGKISSPSSPTLNVAVAHIRAGSYYEIDASILPQRSPENLKSIRVVMVSKITASDVSLRYPSMFSLRSHFDYSRMNRNKPMKKRSGGGLLPVFDESHVMASELAGDLLYRRIAPHELSMNRNSWGFWVSSSSRRNKFPRREVVSQPAYNTRLCRAASPEGKCSSELKSGGMIKWGRRLRVQYQSRHIDTRKNKEGEESSRVKDEVYKEEEMEKEEDDDDGNEIGGTKQEAKEITNGNRKRKLIESSTERLAQKAKVYDQKKETQIVVYKRKSERKFIDRWSVERYKLAERNMLKVMKEKNAVFGNSILRPELRSEARKLIGDTGLLDHLLKHMAGKVAPGGQDRFMRKHNADGAMEYWLESSDLIHIRKEAGVKDPYWTPPPGWKLGDNPSQDPVCAGEIRDIREELASLKRELKKLASKKEEEELVIMTTPNSCVTSQNDNLMTPAKEIYADLLKKKYKIEDQLVIIGETLRKMEEDMGWLKKTVDENYPKKPDSTETPLLLEDSPPIQTLEGEVKVVNKGNQITESPQNREKGRKHDQQERSPLSLISNTGFRICRPVGMFAWPQLPALAAATDTNASSPSHRQAYPSPFPVKPLAAKRPLGLTFPFTIIPEEAPKNLFNV
For the molecule B1, the binding entry in test [1] is given as “no binding”; in test [2], “binds”.

These data come from paper PMC6465247.
